This passage reports binding results from paper PMC11607329.

For assay [1], the target named is T1, nuclear receptor coactivator 4 (mouse (endogenous in mouse VSMCs)) (UniProt Q5U4H9).
T1 sequence: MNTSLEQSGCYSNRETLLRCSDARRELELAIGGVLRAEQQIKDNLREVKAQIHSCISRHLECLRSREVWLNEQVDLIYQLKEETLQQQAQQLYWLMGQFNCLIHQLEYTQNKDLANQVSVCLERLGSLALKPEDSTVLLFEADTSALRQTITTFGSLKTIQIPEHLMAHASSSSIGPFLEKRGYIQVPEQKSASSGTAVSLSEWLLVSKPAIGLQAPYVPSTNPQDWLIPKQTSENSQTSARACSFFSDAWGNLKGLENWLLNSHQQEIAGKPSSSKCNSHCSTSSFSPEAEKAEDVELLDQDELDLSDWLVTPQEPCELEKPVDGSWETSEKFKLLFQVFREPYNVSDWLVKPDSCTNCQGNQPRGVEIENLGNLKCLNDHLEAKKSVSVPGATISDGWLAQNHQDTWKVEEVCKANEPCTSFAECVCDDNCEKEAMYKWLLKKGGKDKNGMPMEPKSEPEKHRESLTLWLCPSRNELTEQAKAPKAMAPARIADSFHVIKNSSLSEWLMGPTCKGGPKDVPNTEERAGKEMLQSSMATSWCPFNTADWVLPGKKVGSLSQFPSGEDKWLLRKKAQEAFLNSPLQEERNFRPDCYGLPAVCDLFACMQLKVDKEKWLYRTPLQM
The assay can be described thus: co-IP; VSMCs total cell lysates (IP lysis buffer with 1% PMSF), pre-cleared with protein A/G agarose, incubated overnight at 4 °C with anti-LCN2 or anti-NCOA4 primary antibody or control IgG, collected on protein A/G agarose for 5 h at 4 °C, Western blot. Background: A western blot detects proteins with antibodies after separation by electrophoresis.

For assay [2], the target named is T2, Lipocalin-2 (mouse (endogenous in mouse VSMCs)) (UniProt P11672).
T2 sequence: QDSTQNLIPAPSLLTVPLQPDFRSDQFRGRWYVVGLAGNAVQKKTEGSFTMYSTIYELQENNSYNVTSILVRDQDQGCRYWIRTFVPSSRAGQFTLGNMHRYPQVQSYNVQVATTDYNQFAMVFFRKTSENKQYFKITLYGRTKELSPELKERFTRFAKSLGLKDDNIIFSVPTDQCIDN
The description is as above.

Results are given in words; binding and its absence hold for the method and conditions named. Binding seen in cells or lysates may run through a third protein. Some results given as binding are weak or reduced against the parent protein; the word gives no strength.

B1: Lipocalin-2 (protein, UniProt P11672 21-200)
chain: T2 sequence
With B1, the binding result in assay [1] is “binds”.

B2: nuclear receptor coactivator 4 (protein, UniProt Q5U4H9 1-625)
chain: T1 sequence
For the molecule B2, in assay [2], the binding result was “binds”.
